Measured values reported in doi:10.1101/2025.11.19.685371.
No constants are given. Whether binding was seen depends on the method and setting.

The chains behind the UniProt entries cited, without tags or fusion partners. Where a name states a change or a piece, a line headed by the entry shows the natural chain unless it says otherwise. A line that says so, or that is headed by a name, gives the form on record, which may keep a tag or linker.
Alexa Fluor 488-labeled unlipidated ApoE3 (Trp210Cys mutant) (P02649, form named): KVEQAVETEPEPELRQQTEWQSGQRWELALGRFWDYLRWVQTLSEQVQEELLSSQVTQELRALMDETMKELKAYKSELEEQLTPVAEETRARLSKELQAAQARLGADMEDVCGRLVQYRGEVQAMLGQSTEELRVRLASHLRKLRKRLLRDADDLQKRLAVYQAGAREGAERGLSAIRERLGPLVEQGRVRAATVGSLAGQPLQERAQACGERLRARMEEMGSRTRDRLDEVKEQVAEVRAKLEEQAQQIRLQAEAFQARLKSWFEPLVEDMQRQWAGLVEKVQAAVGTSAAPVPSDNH

Molecular target: Alexa Fluor 488-labeled unlipidated ApoE3 (Trp210Cys mutant) (human) (UniProt P02649)
Experiment: fluorescence correlation spectroscopy

binding: no binding (tested: 1 nM)
Substance: Alexa Fluor 488-labeled unlipidated ApoE3 (Trp210Cys mutant) (from UniProt P02649 19-317)
